Reference: PMC12407099
Like-named read-outs stand apart in the source and are kept apart here. These are yes or no findings as the source states them, for the method shown. Binding seen in cells or lysates may run through a third protein. A yes stands for co-enrichment or nearness to the bait. Other partners may have been found. Tags and fused reporters may be left off the sequences shown.

Sequences of proteins named here, by UniProt entry; tags and fusion partners are left off.
UniProt Q12888: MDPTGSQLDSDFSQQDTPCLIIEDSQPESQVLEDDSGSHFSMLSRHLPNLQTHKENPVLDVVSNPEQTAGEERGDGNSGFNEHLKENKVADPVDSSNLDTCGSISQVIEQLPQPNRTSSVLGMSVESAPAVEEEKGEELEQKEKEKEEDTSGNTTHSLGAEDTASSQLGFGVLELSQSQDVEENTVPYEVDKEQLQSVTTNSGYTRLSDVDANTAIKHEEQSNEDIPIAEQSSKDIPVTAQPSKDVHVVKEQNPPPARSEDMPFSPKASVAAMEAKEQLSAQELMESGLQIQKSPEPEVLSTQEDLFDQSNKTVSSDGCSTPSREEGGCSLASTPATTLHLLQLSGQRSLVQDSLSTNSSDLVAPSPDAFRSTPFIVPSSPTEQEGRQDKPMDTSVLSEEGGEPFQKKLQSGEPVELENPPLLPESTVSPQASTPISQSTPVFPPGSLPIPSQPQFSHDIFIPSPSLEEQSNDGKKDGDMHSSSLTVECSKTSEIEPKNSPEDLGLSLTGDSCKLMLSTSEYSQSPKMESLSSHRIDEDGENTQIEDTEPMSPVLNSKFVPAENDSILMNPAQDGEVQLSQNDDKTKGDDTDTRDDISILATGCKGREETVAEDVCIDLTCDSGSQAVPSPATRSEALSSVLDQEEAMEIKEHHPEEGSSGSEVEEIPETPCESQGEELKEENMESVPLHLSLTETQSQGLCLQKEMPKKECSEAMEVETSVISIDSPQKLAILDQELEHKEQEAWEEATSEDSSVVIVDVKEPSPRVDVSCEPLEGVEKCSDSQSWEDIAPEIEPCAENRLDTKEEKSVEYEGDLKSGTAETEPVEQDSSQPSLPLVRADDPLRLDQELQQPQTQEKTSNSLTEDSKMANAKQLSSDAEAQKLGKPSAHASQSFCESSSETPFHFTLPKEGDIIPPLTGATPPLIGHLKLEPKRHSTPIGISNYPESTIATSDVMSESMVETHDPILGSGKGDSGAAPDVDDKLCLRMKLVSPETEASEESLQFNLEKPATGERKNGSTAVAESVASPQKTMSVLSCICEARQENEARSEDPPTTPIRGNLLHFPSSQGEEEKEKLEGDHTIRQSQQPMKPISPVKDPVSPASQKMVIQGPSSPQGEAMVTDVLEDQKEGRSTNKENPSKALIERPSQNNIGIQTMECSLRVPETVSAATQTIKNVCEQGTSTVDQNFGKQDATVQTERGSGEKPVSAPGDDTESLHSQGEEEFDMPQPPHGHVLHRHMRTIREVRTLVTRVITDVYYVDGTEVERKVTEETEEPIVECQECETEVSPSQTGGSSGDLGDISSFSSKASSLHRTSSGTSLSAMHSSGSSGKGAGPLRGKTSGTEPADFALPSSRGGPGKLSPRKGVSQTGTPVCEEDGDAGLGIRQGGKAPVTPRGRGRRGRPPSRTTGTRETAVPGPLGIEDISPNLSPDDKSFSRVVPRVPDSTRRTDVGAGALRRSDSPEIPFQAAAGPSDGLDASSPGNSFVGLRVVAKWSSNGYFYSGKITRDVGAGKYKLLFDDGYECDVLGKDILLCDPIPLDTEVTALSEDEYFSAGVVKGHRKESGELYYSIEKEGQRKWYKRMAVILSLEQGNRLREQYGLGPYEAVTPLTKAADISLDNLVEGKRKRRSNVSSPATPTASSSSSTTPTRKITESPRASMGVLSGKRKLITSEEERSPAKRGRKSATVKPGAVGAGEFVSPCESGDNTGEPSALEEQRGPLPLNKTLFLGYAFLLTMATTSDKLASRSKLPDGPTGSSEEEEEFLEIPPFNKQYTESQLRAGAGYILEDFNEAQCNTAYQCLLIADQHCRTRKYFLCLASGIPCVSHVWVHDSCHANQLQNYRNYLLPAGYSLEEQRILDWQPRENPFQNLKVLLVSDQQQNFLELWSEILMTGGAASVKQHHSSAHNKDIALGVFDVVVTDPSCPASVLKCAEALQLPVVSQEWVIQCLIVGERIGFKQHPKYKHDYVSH

T1: WT hnRNPL (heterogeneous ribonucleoprotein L), siRNA-resistant, C-terminal 3× Flag (UniProt Q8R081)
T1 sequence: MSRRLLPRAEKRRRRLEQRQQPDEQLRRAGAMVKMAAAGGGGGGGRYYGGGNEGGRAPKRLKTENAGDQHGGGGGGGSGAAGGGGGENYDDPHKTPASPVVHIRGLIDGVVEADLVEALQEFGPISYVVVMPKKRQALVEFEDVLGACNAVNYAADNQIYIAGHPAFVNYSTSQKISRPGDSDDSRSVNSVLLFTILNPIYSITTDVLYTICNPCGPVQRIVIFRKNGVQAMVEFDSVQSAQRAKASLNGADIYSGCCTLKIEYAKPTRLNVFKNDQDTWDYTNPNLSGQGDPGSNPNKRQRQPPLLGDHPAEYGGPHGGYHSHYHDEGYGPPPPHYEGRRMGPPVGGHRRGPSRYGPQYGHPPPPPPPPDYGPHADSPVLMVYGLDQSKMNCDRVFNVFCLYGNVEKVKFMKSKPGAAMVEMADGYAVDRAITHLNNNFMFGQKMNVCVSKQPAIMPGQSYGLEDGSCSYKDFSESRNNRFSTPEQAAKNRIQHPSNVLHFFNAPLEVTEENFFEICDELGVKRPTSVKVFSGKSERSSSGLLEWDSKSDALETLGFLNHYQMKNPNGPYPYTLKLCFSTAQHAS

B1: CstF64 (polyadenylation/cleavage stimulating factor), endogenous in HEK293T (protein, UniProt P33240 1-577)
chain: MAGLTVRDPAVDRSLRSVFVGNIPYEATEEQLKDIFSEVGPVVSFRLVYDRETGKPKGYGFCEYQDQETALSAMRNLNGREFSGRALRVDNAASEKNKEELKSLGTGAPVIESPYGETISPEDAPESISKAVASLPPEQMFELMKQMKLCVQNSPQEARNMLLQNPQLAYALLQAQVVMRIVDPEIALKILHRQTNIPTLIAGNPQPVHGAGPGSGSNVSMNQQNPQAPQAQSLGGMHVNGAPPLMQASMQGGVPAPGQMPAAVTGPGPGSLAPGGGMQAQVGMPGSGPVSMERGQVPMQDPRAAMQRGSLPANVPTPRGLLGDAPNDPRGGTLLSVTGEVEPRGYLGPPHQGPPMHHVPGHESRGPPPHELRGGPLPEPRPLMAEPRGPMLDQRGPPLDGRGGRDPRGIDARGMEARAMEARGLDARGLEARAMEARAMEARAMEARAMEARAMEVRGMEARGMDTRGPVPGPRGPIPSGMQGPSPINMGAVVPQGSRQVPVMQGTGMQGASIQGGSQPGGFSPGQNQVTPQDHEKAALIMQVLQLTADQIAMLPPEQRQSILILKEQIQKSTGAP

Experiments:
[1] = target: T1, WT hnRNPL (heterogeneous ribonucleoprotein L), siRNA-resistant, C-terminal 3× Flag; test: affinity purification with mass spectrometry; Flag-tagged WT and F15 hnRNPL immunoprecipitated from HEK293T lysates with anti-Flag affinity resin; SDS-PAGE, silver staining; gel regions that differed between WT and mutant excised for mass spectrometry
[2] = target: T1, WT hnRNPL (heterogeneous ribonucleoprotein L), siRNA-resistant, C-terminal 3× Flag; test: as above; remark: listed apart in the source

Row | Molecule | binding [1] | binding [2]
1 | 53BP1 (from UniProt Q12888 1-1972) | binds | 
2 | B1 |  | binds
